Measured values taken from patent US9309283B2 (Onyx Therapeutics, Inc., priority 2012, dated 2016).

Assay: peptide synthesis
Conditions: late stage modification step

Substance “(4S,7S,10S,13S,Z)-10-Benzyl-7,13-diisobutyl-14-((S)-2-methyloxiran-2-yl)-1-morpholino-2,5,8,11,17-pentaoxo-4-phenethyl-3,6,9,12,15,16-hexaazahenicos-14-en-21-oic acid” has a step yield of 29%.
